# Out of some 340,000 compounds screened, about 170 (0.05%) were called active. The inconclusive results got no clear call from the source; some entries with a clear call stand among them for comparison. Calls follow the shape of the dose curve; as a rule, active = well fitted inhibition curve with a large enough effect in the signal ratio, with a control signal flat (not every such curve was filed as active); inconclusive = small, poorly fitted or top-dose-only effect, or effect the other way, or a change in a side signal; inactive = flat fitted curve, though single readings scatter; the % refers to the signal ratio. Where the call is inconclusive, the potency comes from a doubtful curve fit.
# Test: qHTS Assay to Find Inhibitors of Chronic Active B-Cell Receptor Signaling;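 as to activity change, negative = inhibition: plate controls were basal doxycycline-induced cells for no effect and cells given 10 µM MG132 for full effect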
# Details: ABC-DLBCL IkBa-CBG/CBR reporter, luminescence ratio (green luciferase fused to IkBa over red control in TMD8 lymphoma cells), 4 h; activity change, negative = inhibition: at 46.1 µM (top of the series) unless noted
# Procedure, shortened: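 Doxycycline induced both beetle luciferases in TMD8 lymphoma cells; IKK-driven degradation limits the IkappaBalpha-fused green signal, while red luminescence normalises for cell number and nonspecific effects. Compounds tested up to 46 uM, 4 hrs.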
# Potency is read from the fitted curve at half-maximal effect.
SMILES,Potency,"activity change, negative = inhibition"
O=S(=O)(c1cccs1)N1CCN(c2ccc(O)cc2)CC1,"inconclusive: 35.5 µM [rising, partial curve, poor fit]",
CC(C)(C)OC(=O)C[C@@H]1C/C=C\C[C@@H](CC(=O)N[C@H](CO)Cc2ccccc2)C(=O)N2CCC[C@@H]2COC1=O,,inconclusive: 2.19%
C/C(=N\NS(=O)(=O)c1ccc([N+](=O)[O-])cc1)c1ccc(NC(=O)c2ccco2)cc1,"inconclusive: 31.6 µM [falling, single point]",
COc1ccc(Cl)cc1NC(=O)CSc1nnc(C2CC2)n1N,,inconclusive: 15.1%
COc1ccc(C2CC(c3cccs3)=NN2c2ccc(C=O)cc2)cc1 (centres undefined),,inconclusive: 2.03%
c1ccc(-c2ccccc2-n2cnnn2)cc1,,inconclusive: -0.725%
O=C(Cn1nc([N+](=O)[O-])nc1Br)NC1CCCCC1,,inconclusive: -11%
O=C(O)CC/C(=N\Nc1ccc(Cl)cc1)c1cccs1,,inconclusive: -15.9%
CCOP(=O)(c1ccc(N(C)C)cc1)C(O)c1ccc(OC)cc1 (centres undefined),,inconclusive: 1.95%
Cc1cc2nc(-c3ccc(SCC(=O)N4CCN(C(=O)c5ccco5)CC4)nc3)[nH]c2cc1C,"inconclusive: 29.1 µM [falling, single point]",
COC(=O)c1cc(NC(=O)c2cccs2)ccc1N1CCOCC1,"inconclusive: 22.4 µM [falling, partial curve]",
CC(C)C[C@@]12C(=O)N(c3ccc(Br)cc3)C(=O)N1[C@H](c1ccc(Br)cc1)[C@@H]1C(=O)N(C(C)(C)C)C(=O)[C@@H]12,,inconclusive: 4.75%
COc1cccc(NC(=S)N2CCCC2c2ccc(OC)c(OC)c2)c1 (centres undefined),,inconclusive: -6.59%
CCN(CC)S(=O)(=O)c1ccc(-c2nnc(SCC(=O)N3CCOCC3)o2)cc1,,inactive
C/C(CC(=O)Nc1ccccn1)=N\NC(=O)c1ccccc1O,"inconclusive: 3.98 µM [rising, partial curve, poor fit]",
CCCCC(=O)Nc1cccc(NC(=O)c2ccc3c(c2)OCO3)c1,"inconclusive: 1.3 µM [falling, full curve]",
N#CC1=C(N)C2=CCCC[C@H]2[C@H](c2cccc(F)c2)C1(C#N)C#N,,inactive
COc1ccc(NC(=O)/C(Cl)=C(/Cl)S(=O)(=O)Cc2ccccc2)cn1,"inconclusive: 16.4 µM [rising, partial curve, poor fit]",
CC1(C)C2CCC(C2)C1C/C=N/NC(N)=S (centres undefined),,inconclusive: -28.5%
COc1ccc(CN2CCC(CO)(Cc3cccc(C(F)(F)F)c3)CC2)cc1Cn1cccn1,"inconclusive: 10 µM [falling, partial curve, poor fit]",
Cc1cc(C)nc(NS(=O)(=O)c2ccc(NC(=O)CSc3nc(-c4ccccc4)c(C#N)c(=O)[nH]3)cc2)n1,,inconclusive: -5.42%
COc1ccc(/C=N/N=C2/NC(=O)C(CC(=O)O)S2)cc1OCc1ccccc1Cl (centres undefined),,inconclusive: 18.9%
O=C(c1ccccc1)N1N=C(c2ccccc2)CC1c1ccccc1 (centres undefined),,inconclusive: -3.2%
COc1cc(C(=O)NC2CCCc3ccccc32)ccc1OCC(=O)Nc1ccc(F)cc1 (centres undefined),,inconclusive: -0.145%
C/C(CC(=O)Nc1cccc(Cl)c1Cl)=N\NC(=O)c1ccccc1Br,"inconclusive: 35.5 µM [rising, single point]",
CCCOc1cc(N)ccc1C(=O)OCCN(CC)CC,,inactive
CC1S/C(=C(\C#N)C(=O)NCc2ccco2)N(Cc2ccco2)C1=O (centres undefined),,inconclusive: -0.0263%

SMILES,Potency,"activity change, negative = inhibition"
Cc1ccc(C(=O)NNC(=O)c2ccncc2)cc1S(=O)(=O)N1CCOCC1,,inactive
Cc1csc(NC(=O)c2sccc2C)n1,,inconclusive: 18.1%
Cc1ccc(NC(=O)CO/N=C(\N)c2nonc2N)cc1,,inconclusive: 12.1%
O=C(CCN1C(=O)C2C3C=CC(C4CC34)C2C1=O)Oc1ccc(Br)cc1 (centres undefined),,inactive
COc1ccc(S(=O)(=O)N(Cc2ccco2)Cc2cc3ccccc3[nH]c2=O)cc1,,inactive
CCOC(=O)N1CCc2c(sc(NCc3sccc3C)c2C(=O)Nc2ccc(OC)cc2OC)C1,"inconclusive: 35.5 µM [falling, single point]",
COc1ccc(C2=CN3CCCCC3CC2=O)cc1OC (centres undefined),,inconclusive: 3.23%
COC(=O)c1ccc(NC(=O)CNC(=O)c2sc3ccccc3c2Cl)cc1,,inconclusive: -0.274%
Cn1ncc2c(N3CCN(c4cccc(Cl)c4)CC3)ncnc21,"inconclusive: 5.62 µM [falling, single point]",
Cc1cccc(-c2nc(C#N)c(N3CCCCCC3)o2)c1,,inconclusive: 1.96%
COc1ccc(N(CC(=O)NCCSCc2ccco2)S(=O)(=O)c2ccc(C)cc2)cc1,"inconclusive: 5.62 µM [falling, single point]",
Nc1ccc(C(=O)OCC(=O)NC2CCCc3ccccc32)cc1[N+](=O)[O-] (centres undefined),"inconclusive: 29.1 µM [falling, single point]",
COc1ccc(-n2nnnc2-c2ccccc2)cc1,"inconclusive: 14.6 µM [falling, single point]",
CC(C)Cc1ccc(CN2CCCC(NC(=O)Cn3cnnn3)C2)cc1 (centres undefined),,inactive
COc1ccc(C(=O)COC(=O)CNC(=O)c2ccc(OC)cc2)cc1,"inconclusive: 1.41 µM [falling, partial curve]",
O=C(N/N=C/c1ccc(O)c(O)c1)c1cc(-c2ccccc2)nc2ccccc12,,inactive
Brc1cccc(OCCOCCn2ccnc2)c1,,inconclusive: 7.19%
O=C(NCc1ccc(Cl)cc1)Nc1ccc(F)cc1,,inconclusive: 6.19%
CCOc1ccc(NC(=O)N(C2CCCC2)C2CCN(C(C)=O)CC2)cc1,,inconclusive: 10.7%
CC1CCN(C(=O)COC(=O)C2CCN(S(=O)(=O)c3ccc4c(c3)OCCO4)CC2)CC1,,inactive
Cc1nc2ccccc2n1CC(=O)N/N=C/c1cccnc1,,inconclusive: 12.5%
O=C(COc1cc(F)ccc1[N+](=O)[O-])NCC1CCCO1 (centres undefined),,inconclusive: 2.33%
COc1ccc(-n2c(-c3ccc(OC)c(OC)c3)n[nH]c2=S)cc1,,inconclusive: -7.96%
N#CCCN/N=C(/Cc1nc2ccccc2[nH]1)c1cccc(Cl)c1,"inconclusive: 1.16 µM [falling, partial curve, poor fit]",
N#Cc1c(-c2ccco2)c2c([nH]c1=S)CCCC2,,inactive
CN(C(=O)c1cccnc1)c1nc(-c2ccccc2)cs1,,inconclusive: 0.323%
COc1ccc([C@H]2CC(=O)C=C(c3cccc(OC)c3OC)C2)cc1OC,,inconclusive: 11.4%

# Some of the entries above in another layout:
SMILES	Potency	activity change, negative = inhibition
CC(C)(C)OC(=O)C[C@@H]1C/C=C\C[C@@H](CC(=O)N[C@H](CO)Cc2ccccc2)C(=O)N2CCC[C@@H]2COC1=O		inconclusive: 2.19%
O=C(c1ccccc1)N1N=C(c2ccccc2)CC1c1ccccc1 (centres undefined)		inconclusive: -3.2%
Nc1ccc(C(=O)OCC(=O)NC2CCCc3ccccc32)cc1[N+](=O)[O-] (centres undefined)	inconclusive: 29.1 µM [falling, single point]	
CN(C(=O)c1cccnc1)c1nc(-c2ccccc2)cs1		inconclusive: 0.323%

# 2 neighbouring records already listed, quoted:
SMILES,Potency,"activity change, negative = inhibition"
COc1ccc(-n2c(-c3ccc(OC)c(OC)c3)n[nH]c2=S)cc1,,inconclusive: -7.96%
N#CCCN/N=C(/Cc1nc2ccccc2[nH]1)c1cccc(Cl)c1,"inconclusive: 1.16 µM [falling, partial curve, poor fit]",

# Next entries:

SMILES,Potency,"activity change, negative = inhibition"
COc1ccc(-c2cc(C(F)(F)F)nc(SCCC(=O)NCc3ccccc3)n2)cc1,,inconclusive: 2.11%
Cc1ccc(Nc2nc(N)c([N+](=O)[O-])c(N3CCCC(C)C3)n2)cc1C (centres undefined),,inconclusive: 9.91%
CC(=O)Nc1ccc(S(=O)(=O)NCCC(=O)OCCN2C(=O)c3ccccc3C2=O)cc1,,inconclusive: -1.42%
COc1ccc(NC(=O)CN(C)C(=O)CN2C(=O)c3ccc([N+](=O)[O-])cc3C2=O)cc1,,inconclusive: 2.82%
CSc1ccc(/C=C/C(=O)N2CCCN(C)CC2)cc1,,inactive
N#C/C(=C/c1ccc(-c2ccc(S(N)(=O)=O)cc2)o1)c1nc2ccccc2s1,,inactive
COc1ccc(CCNC(=O)CCC(=O)n2ncc3cc(C)ccc32)cc1OC,,inconclusive: -0.966%
COc1ccc(/C=C2/CCCC(C(=O)C(F)(F)F)=C2O)cc1OC,"inconclusive: 10 µM [falling, partial curve, poor fit]",
C[C@@H]1COC(=O)[C@H](Cc2ccc(F)cc2)CC/C=C\C[C@@H](CC(=O)NCCO)C(=O)N1,,inactive
CCCCc1ccc(NC(=S)Nc2ccc(Nc3ccc(OC)cc3)cc2)cc1,,inactive
C=CCOc1c(Br)cc(CNn2c(C)n[nH]c2=S)cc1OCC,,inactive
CCn1cc(C(=O)NC(=S)Nc2ccccc2Br)cn1,,inconclusive: 1.39%
CCN(C(=O)c1cc2c(=O)n3cccc(C)c3nc2n1CCCOC)C1CCCCC1,,inconclusive: 16.2%
Cc1ccccc1Nc1nc(-c2sc(NC(=O)c3cccc(Cl)c3)nc2C)cs1,"inconclusive: 22.4 µM [falling, single point]",
COc1ccc(-c2ccc(SCC(=O)Nc3cccc(C(C)=O)c3)nn2)cc1OC,,inconclusive: -12.4%
Cc1cc(Oc2ccccc2)nc2ccc(O)cc12,,inconclusive: 1.44%
CN(C)c1ccc(C(=O)c2ccc(N(C)C)c3ccccc23)cc1,"inconclusive: 1.64 µM [falling, partial curve]",
CC1=NNC(=O)/C1=C\c1cn(-c2ccccc2)nc1-c1ccc(F)cc1,,inconclusive: 2.6%
CCCC(=O)Nc1ccc(C(=O)NCC(=O)OCC)cc1,,inconclusive: 10.7%
COc1ccc(CC(=O)Oc2ccc(C)cc2Br)cc1OC,,inactive
c1csc(-c2nnc(-c3ccc(N4CCOCC4)cc3)o2)c1,,inconclusive: -0.236%
Cc1ccc(CNc2cnn(C34CC5CC(CC(C5)C3)C4)c(=O)c2Cl)cc1,,inactive
O=C(NCCc1ccccc1)C(=O)NCC1OCCN1S(=O)(=O)c1ccc2c(c1)OCCO2 (centres undefined),,inconclusive: -5.46%
CCOC(=O)Cc1csc(SCC(=O)NC2CCCC(C)C2C)n1 (centres undefined),,inconclusive: 8.92%
CCOC(=O)c1cc2c(ccn2-c2ccc(F)cc2)n1CC(=O)N1CCN(C(=O)c2ccco2)CC1,,inconclusive: -0.173%
